Laboratory results: PubChem BioAssay AID1224827 (NIAID, 2016)
In all, the deposit lists about 3,800 reagents; this is an unselected part. In the full data, about 2,200 (57%) got an active call. 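Active means a strong reporter change in either direction; calls are per siRNA, not per gene; qiagen siRNAs gave weaker effects.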 The numbers tell different reagents against one gene apart. Further read-outs or replicates are left out here. No sequences are given here.

Aim: 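Identify regulators of the macrophage TNF-alpha response to bacterial LPS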 (follow-up of hits)
System: RAW264.7 G9 mouse macrophage reporter clone
Knock-down reagent: single siRNA against mouse genes, 100 nM siRNA
Timing: siRNA for 2 days, then LPS about 16 h
Conditions: bacterial lipopolysaccharide (LPS), 10 ng/ml, cells fixed after overnight (about 16 h) stimulation
Measured: 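TNF promoter reporter red fluorescence in nuclei, background subtracted, normalised per plate and to non-targeting control siRNA, as z-scores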
Reading the numbers: TNF reporter z-score, mean: higher = stronger Tnf promoter reporter signal
Call rule: 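An siRNA is called active when its mean z-score over replicates is at least +2 or at most -2; control wells get no call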

Chst8 (GeneID 68947) #1 — TNF reporter z-score, mean = -2.9; activity call = active
Chst8 (GeneID 68947) #2 — TNF reporter z-score, mean = -3.9; activity call = active
Chst8 (GeneID 68947) #3 — TNF reporter z-score, mean = -4.38; activity call = active
Chst8 (GeneID 68947) #4 — TNF reporter z-score, mean = 2.96; activity call = active
Chst8 (GeneID 68947) #5 — TNF reporter z-score, mean = -1.22; activity call = inactive
Chst8 (GeneID 68947) #6 — TNF reporter z-score, mean = -2.69; activity call = active
Pate6 (GeneID 68171) #1 — TNF reporter z-score, mean = 6.27; activity call = active
Pate6 (GeneID 68171) #2 — TNF reporter z-score, mean = 3.99; activity call = active
Pate6 (GeneID 68171) #3 — TNF reporter z-score, mean = -3.92; activity call = active
Pate6 (GeneID 68171) #4 — TNF reporter z-score, mean = 2.46; activity call = active
Pate6 (GeneID 68171) #5 — TNF reporter z-score, mean = 1.35; activity call = inactive
Pate6 (GeneID 68171) #6 — TNF reporter z-score, mean = 0.191; activity call = inactive
Ly6g6d (GeneID 114654) #1 — TNF reporter z-score, mean = -0.191; activity call = inactive
Ly6g6d (GeneID 114654) #2 — TNF reporter z-score, mean = -2.5; activity call = active
Ly6g6d (GeneID 114654) #3 — TNF reporter z-score, mean = -5.62; activity call = active
Ly6g6d (GeneID 114654) #4 — TNF reporter z-score, mean = 1.32; activity call = inactive
Ly6g6d (GeneID 114654) #5 — TNF reporter z-score, mean = -0.411; activity call = inactive
Ly6g6d (GeneID 114654) #6 — TNF reporter z-score, mean = -0.825; activity call = inactive
Cfb (GeneID 14962) #1 — TNF reporter z-score, mean = -2.71; activity call = active
Cfb (GeneID 14962) #2 — TNF reporter z-score, mean = -3.52; activity call = active
Cfb (GeneID 14962) #3 — TNF reporter z-score, mean = -4.51; activity call = active
Cfb (GeneID 14962) #4 — TNF reporter z-score, mean = -0.544; activity call = inactive
Cfb (GeneID 14962) #5 — TNF reporter z-score, mean = -0.686; activity call = inactive
Cfb (GeneID 14962) #6 — TNF reporter z-score, mean = -1.46; activity call = inactive
Egfl7 (GeneID 353156) #1 — TNF reporter z-score, mean = 4.84; activity call = active
Egfl7 (GeneID 353156) #2 — TNF reporter z-score, mean = 1.7; activity call = inactive
Egfl7 (GeneID 353156) #3 — TNF reporter z-score, mean = -3.15; activity call = active
Egfl7 (GeneID 353156) #4 — TNF reporter z-score, mean = 3.99; activity call = active
Egfl7 (GeneID 353156) #5 — TNF reporter z-score, mean = -1.59; activity call = inactive
Egfl7 (GeneID 353156) #6 — TNF reporter z-score, mean = -1.07; activity call = inactive
Frey1 (GeneID 75641) #1 — TNF reporter z-score, mean = -0.138; activity call = inactive
Frey1 (GeneID 75641) #2 — TNF reporter z-score, mean = -4.84; activity call = active
Frey1 (GeneID 75641) #3 — TNF reporter z-score, mean = -5.8; activity call = active

3 entries from above, reformatted:
| target gene | reagent | TNF reporter z-score, mean | activity call |
| --- | --- | --- | --- |
| Chst8 (GeneID 68947) | 2 | -3.9 | active |
| Chst8 (GeneID 68947) | 3 | -4.38 | active |
| Chst8 (GeneID 68947) | 4 | 2.96 | active |
